Measurements reported in the supplement of paper PMC9135407.
Where “and” joins values, the source holds several entries; their conditions need not be identical. Equal entries are not always repeated. Structures can show the parent of a compound that is named as a salt. ± gives the standard deviation of the averaged measurements. The list shows a part of the results. Part of the spread comes from offsets between plates or batches.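 Primary human stellate myofibroblasts activated in culture; inactivation shown by regained lipid droplets. Readout: fraction of Hoechst-counted cells exceeding a per-plate Bodipy threshold, duplicate wells, each plate with DMSO negative and nortriptyline positive controls. Hits: control-normalized score beyond the plate's top-tenth-percentile nortriptyline wells, or among its three best wells. Final well concentrations unstated.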

System: primary human hepatic stellate cells (donor 1)
Experiment: percent Bodipy-positive cells; higher = more lipid droplet accumulation
Details: 48 h
[1] = library stock concentration: 3.33 mM
[2] = library stock concentration: 10 mM
[3] = library stock concentration: 13.2 mM
[4] = library stock concentration: 80 uM
[5] = library stock concentration: 400 uM
[6] = library stock concentration: 2 mM
[7] = library stock concentration: 1 mM

Structure (SMILES): Cc1ccccc1N1C(=O)c2cc(S(N)(=O)=O)c(Cl)cc2NC1C (configuration not stated) [Metolazone]
- percent Bodipy-positive cells: 16 ± 1%
- percent Bodipy-positive cells [1]: 8.16 ± 1.4%

Structure (SMILES): OCCOCCN1CCN(C(c2ccccc2)c2ccc(Cl)cc2)CC1 (configuration not stated) [Hydroxyzine dihydrochloride]
- percent Bodipy-positive cells: 53.9 ± 0.54%

Structure (SMILES): OCCOCCN1CCN(C(c2ccccc2)c2ccc(Cl)cc2)CC1 (configuration not stated) [Hydroxyzine pamoate]
- percent Bodipy-positive cells (library stock concentration: 2.6 mM): 16.3 ± 8.7%
- percent Bodipy-positive cells [2]: 48.8 ± 12%

Structure (SMILES): OCCOCCN1CCN(C(c2ccccc2)c2ccc(Cl)cc2)CC1 (configuration not stated) [Hydroxyzine 2HCl]
- percent Bodipy-positive cells [1]: 25.3 ± 2%
- percent Bodipy-positive cells [2]: 73.8 ± 3.5%

Structure (SMILES): COc1ccc(CNC(=O)Nc2ncc([N+](=O)[O-])s2)cc1
- percent Bodipy-positive cells [1]: 42.7 ± 12%

Structure (SMILES): COc1ccc(CNC(=O)Nc2ncc([N+](=O)[O-])s2)cc1 [GSK-3b Inhibitor VIII]
- percent Bodipy-positive cells [1]: 17.4 ± 2.6%

Structure (SMILES): Cn1c2ccccc2c2c3c(c4c5ccccc5n(CCC#N)c4c21)CNC3=O
- percent Bodipy-positive cells [1]: 9.57 ± 0.43%
- percent Bodipy-positive cells [3]: 41.6 ± 6.1%

Structure (SMILES): O=C(O)c1ccc2c3c1cccc3c(=O)n1c3ccccc3nc21
- percent Bodipy-positive cells [1]: 9.14 ± 1.9%

Structure (SMILES): C=CC1=C(C(=O)O)N2C(=O)[C@@H](NC(=O)/C(=N\OCC(=O)O)c3csc(N)n3)[C@H]2SC1
- percent Bodipy-positive cells [2]: 11.5 ± 4.2%

Structure (SMILES): C=CC1=C(C(=O)O)N2C(=O)[C@@H](NC(=O)/C(=N\OCC(=O)O)c3csc(N)n3)[C@H]2SC1 [Cefixime]
- percent Bodipy-positive cells: 27.3 ± 3.4%

Structure (SMILES): COc1ccc(NS(=O)(=O)c2sc3ccc(Cl)cc3c2C)cc1N1CCNCC1
- percent Bodipy-positive cells [2]: 96.3 ± 2%

Structure (SMILES): O=C(NS(=O)(=O)c1ccc(Br)s1)c1ccc(Cl)cc1Cl [Tasisulam]
- percent Bodipy-positive cells [1]: 27.3 ± 1.1%
- percent Bodipy-positive cells [2]: 29.3 ± 1%

Structure (SMILES): O=C1NCN(c2ccccc2)C12CCN(CCCC(c1ccc(F)cc1)c1ccc(F)cc1)CC2 [Fluspirilene]
- percent Bodipy-positive cells [2]: 97.47 ± 0.8%

Structure (SMILES): Nc1nc(SCc2ccc([N+](=O)[O-])cc2)c2ncn([C@@H]3O[C@H](CO)[C@H](O)C3O)c2n1 (stereo partly drawn) [S-(4-Nitrobenzyl)-6-thioguanosine]
- percent Bodipy-positive cells [2]: 65.1 ± 2.6%

Structure (SMILES): O=S(=O)(O)CCCS(=O)(=O)O
- percent Bodipy-positive cells [2]: 41.2 ± 9.8%

Structure (SMILES): COc1cc(OC)c(C(=O)CCCCN2CCC3(CC2)NC(=O)NC3=O)cc1NS(=O)(=O)c1ccc(C(F)(F)F)cc1.Cl
- percent Bodipy-positive cells [2]: 52.9 ± 2.5%

Structure (SMILES): NC(=S)N/N=C/c1ncccc1N [Triapine]
- percent Bodipy-positive cells [1]: 41.5 ± 2.4%
- percent Bodipy-positive cells [2]: 38.6 ± 1.3%

Structure (SMILES): Nc1cccc2c1CN(C1CCC(=O)NC1=O)C2=O (configuration not stated) [Lenalidomide]
- percent Bodipy-positive cells [4]: 12.2 ± 1.1%
- percent Bodipy-positive cells [5]: 7.43 ± 2.1%
- percent Bodipy-positive cells [6]: 12.7 ± 4.3%
- percent Bodipy-positive cells [2]: 8.71 ± 3.9%

Structure (SMILES): Nc1cccc2c1CN(C1CCC(=O)NC1=O)C2=O (configuration not stated) [Lenalidomide (CC-5013)]
- percent Bodipy-positive cells [1]: 7.82 ± 0.59%
- percent Bodipy-positive cells [2]: 13.5 ± 3.9%

Structure (SMILES): O=C1N[C@@H]2[C@@H](O)[C@@H](O)[C@H](O)[C@@H](CO)N2C1=O [Kifunensine]
- percent Bodipy-positive cells [7]: 20.5 ± 8.2%

Structure (SMILES): O=C(O)CCC/C=C\C[C@H]1[C@@H](O)CC(=O)[C@@H]1/C=C/[C@@H](O)CCc1ccccc1 [17-phenyl trinor Prostaglandin D2]
- percent Bodipy-positive cells [7]: 13.1 ± 3.4%

Structure (SMILES): CC(=O)Oc1c(C)c(C)c2c(c1C)CCC(C)(CCCC(C)CCCC(C)CCCC(C)C)O2 (stereo not drawn) [Alpha-tochopheryl acetate]
- percent Bodipy-positive cells [2]: 45.4 ± 6.5%

Structure (SMILES): CC(=O)Nc1ccc(O)cc1 [Acetaminophen]
- percent Bodipy-positive cells: 10.7 ± 1.4%
- percent Bodipy-positive cells [2]: 9.96% and 8.19%
- percent Bodipy-positive cells [3]: 3.13 ± 1.8%

Structure (SMILES): CCCCC[C@H](O)/C=C/[C@H]1C(=O)C[C@H](O)[C@@H]1C/C=C\CCCC(=O)O [Prostaglandin  D2]
- percent Bodipy-positive cells [7]: 14.4 ± 12%

Structure (SMILES): CCCCC[C@H](O)/C=C/[C@H]1C(=O)C[C@H](O)[C@@H]1C/C=C\CCCC(=O)O [Prostaglandin D2]
- percent Bodipy-positive cells [7]: 9.69 ± 1.9%

Structure (SMILES): CC(C)CCC[C@@H](C)CCC[C@@H](C)CCCC(C)CC(=O)O (some centres not stated) [Phytanic Acid]
- percent Bodipy-positive cells [7]: 14.6 ± 4%

Structure (SMILES): CCCCC(CC)CN=C(N)N=C(N)NCCCCCCNC(N)=NC(N)=NCC(CC)CCCC (configuration not stated) [Alexidine hydrochloride]
- percent Bodipy-positive cells [2]: 93.3 ± 6%

Structure (SMILES): O=C(Nc1ccc(-c2ccnc(Nc3ccc(N4CCOCC4)cc3)n2)cc1)C1CCCN1 (configuration not stated)
- percent Bodipy-positive cells [4]: 6.11 ± 3.9%
- percent Bodipy-positive cells [5]: 4.71 ± 2%
- percent Bodipy-positive cells [6]: 10.5 ± 1.1%
- percent Bodipy-positive cells [1]: 23.3 ± 9.7%
- percent Bodipy-positive cells [2]: 78.8 ± 3.9%

Structure (SMILES): COC(=O)C(C)c1ccc(C(=O)c2cccs2)cc1 (configuration not stated) [Suprofen methyl ester]
- percent Bodipy-positive cells [2]: 31.6 ± 11%

Structure (SMILES): COc1ccc2[nH]c([S+]([O-])Cc3ncc(C)c(OC)c3C)nc2c1 (configuration not stated) [Omeprazole]
- percent Bodipy-positive cells: 27.8 ± 3.6%
- percent Bodipy-positive cells [1]: 6.43 ± 0.91%
- percent Bodipy-positive cells (library stock concentration: 5.8 mM): 5.89 ± 2.9%
- percent Bodipy-positive cells [2]: 19.5% and 8.94%

Structure (SMILES): COc1ccc2[nH]c([S+]([O-])Cc3ncc(C)c(OC)c3C)nc2c1 (configuration not stated)
- percent Bodipy-positive cells [2]: 8.44% and 3.6%

Structure (SMILES): CN(C)[C@@H]1C(O)=C(C(N)=O)C(=O)[C@@]2(O)C(O)=C3C(=O)c4c(O)ccc(Cl)c4[C@@](C)(O)[C@H]3C[C@@H]12 [Chlortetracycline hydrochloride]
- percent Bodipy-positive cells: 24.6 ± 4.1%
- percent Bodipy-positive cells [2]: 10.3 ± 3.6%

Structure (SMILES): O=C1OC2(c3ccc(O)cc3Oc3cc(O)ccc32)c2ccccc21 [Fluorescein]
- percent Bodipy-positive cells (library stock concentration: 6 mM): 0%

Structure (SMILES): O=Cc1cccc2[nH]ccc12 [4-formyl Indole]
- percent Bodipy-positive cells [7]: 13.9 ± 8.8%

Structure (SMILES): CC(=O)N(CC(C)C(=O)O)c1c(I)cc(I)c(N)c1I (configuration not stated) [Iocetamic acid]
- percent Bodipy-positive cells: 5.94 ± 1.6%

Structure (SMILES): CC(=O)OCC1=C(C(=O)O)N2C(=O)[C@@H](NC(=O)CSc3ccncc3)[C@H]2SC1 [Cephapirin sodium]
- percent Bodipy-positive cells (library stock concentration: 4.5 mM): 2.66 ± 0.39%
- percent Bodipy-positive cells [2]: 19.6 ± 4.2%
